Data from publication PMC12794343.
For at least one entry, the source does not settle the construct or the ends of the probe. Results from cells or extracts need not show a direct contact. A weaker result is weaker than the reference pair of the same experiment.

Biological target: YBX1 (endogenous, nuclear extract) (UniProt P67809)
Assay: EMSA
Conditions: 10 mM Tris-HCl pH 7.6, 50 mM KCl, 1 mM DTT, 10% glycerol, 200 ng/reaction poly(dI-dC), 100 nM probe, 10 ug nuclear extract, 30 min on ice, 5% native gel, 0.5x TBE, protein in an extract, label: Cy5 at both ends of the universal strand

Sequence	binding result (complex II abolished, complex I reduced versus YIR)	binding result (complexes I and II, both abolished with YKO extract, 50X cold probe removes II, reduces I)
GAAAAGAGAGGGGTGGGAAGGACGTTCCGTACACA / TGTGTACGGAACGTCCTTCCCACCCCTCTCTTTTCCCAGACCAGGGCAC / GTGCCCTGGTCTGG [YIR_Mut probe]	binds more weakly	–
GAAAAGAGAGGGGTGGGAAGGCATGGGGTGAAAAA / TTTTTCACCCCATGCCTTCCCACCCCTCTCTTTTCCCAGACCAGGGCAC / GTGCCCTGGTCTGG [YIR probe]	–	binds
